Source: ChEMBL document CHEMBL3988442, “University of Dundee, Small-Polar-MMV Screening Library” (2021).

Chains of the proteins cited; added tags and fusions are not shown.
UniProt E9BF75, entry or part of it: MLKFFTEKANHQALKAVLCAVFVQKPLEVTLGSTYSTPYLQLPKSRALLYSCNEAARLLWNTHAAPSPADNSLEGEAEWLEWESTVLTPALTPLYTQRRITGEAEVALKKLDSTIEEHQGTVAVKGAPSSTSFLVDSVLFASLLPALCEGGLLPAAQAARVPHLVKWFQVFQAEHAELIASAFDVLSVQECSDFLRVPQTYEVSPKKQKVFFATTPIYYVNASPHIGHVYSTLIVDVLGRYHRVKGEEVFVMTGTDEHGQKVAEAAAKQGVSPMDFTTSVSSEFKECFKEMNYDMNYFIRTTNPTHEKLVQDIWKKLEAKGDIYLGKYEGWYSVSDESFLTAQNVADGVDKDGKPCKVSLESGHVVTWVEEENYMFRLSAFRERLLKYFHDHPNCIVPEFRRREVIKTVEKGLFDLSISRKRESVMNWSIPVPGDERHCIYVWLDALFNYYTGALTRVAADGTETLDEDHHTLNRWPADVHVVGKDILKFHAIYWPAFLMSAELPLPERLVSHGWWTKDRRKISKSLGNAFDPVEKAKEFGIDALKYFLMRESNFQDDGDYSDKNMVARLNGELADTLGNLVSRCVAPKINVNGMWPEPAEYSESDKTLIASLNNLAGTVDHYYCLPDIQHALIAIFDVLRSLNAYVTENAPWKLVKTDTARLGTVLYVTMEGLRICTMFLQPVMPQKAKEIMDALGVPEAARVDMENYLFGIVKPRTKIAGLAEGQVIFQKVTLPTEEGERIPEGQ

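Methionyl-tRNA synthetase (putative), Leishmania donovani (UniProt E9BF75). Primary screen of methionyl-tRNA synthetase; the read-out is not stated. The test concentration is not given. The values are filed as inhibition. Size under these conditions: about 68,000 compounds, about 24 of them at 50% or above in at least one test.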

All values are in %.
The controls that fix the scale are not given in the record; negative values are as filed.
The compounds are a random part of those screened.

Brc1cnc(NCc2ccccc2N2CCOCC2)nc1 read 16.86%. With Cc1cccnc1NCCNC(=O)[C@H]1CNC[C@@H](C(=O)N2CCCC2)C1 the screen gave 14.5%. For Cc1cc(C(=O)OCC2CCCN2C(N)=O)c(C)o1 (stereo unspecified) the result was 6.983%. Cc1cc(C)c2nc(CNCCNS(C)(=O)=O)cc(O)c2c1 read 18.12%. O=C1CC[C@@H]2[C@@H](CCN2C(=O)c2ccsc2)N1CC1CC1 gave 13.13%. With CN1CCN(c2ncc(CNCCCc3cccc(F)c3)cn2)CC1 the screen gave -6.425%.

For COc1ccccc1Oc1cncc(C2CCCN(CC(N)=O)C2)n1 (stereo unspecified) the result was 6.452%. Cc1cc(NC(=O)CN2CCn3c(nnc3C3CC3)C2)n(C)n1 read 5.102%. Result for CCCN1CCc2[nH]cnc2C12CCN(C(=O)Cn1ccnc1C)CC2 was 16.15%. Result for CCc1ccc(O)c(C(=O)N2CCN(CC(=O)N(CC)CC)CC2)c1 was 10.65%. Result for O=C1CC2(CCN(Cc3ccoc3)C2)CN1c1cncnc1 (stereo unspecified) was 9.804%. For CC(C)N(CCNC(=O)c1ccc(S(=O)(=O)NC2CC2)cc1)C(C)C the result was 9.253%.

For c1ncc(CN2CC(Cc3nccc4cc[nH]c34)C2)cn1 the result was 14.36%. With CCc1ccsc1C(=O)N1CCN(C(=O)c2ccc(C)o2)CC1 the screen gave 8.696%. Result for CN(Cc1ccsc1)C(=O)c1ccc(F)c(NS(C)(=O)=O)c1 was 19.5%. COCCN1CCC(c2nc3ccc(NC4CCC4)cn3n2)CC1 gave 13.49%. Result for CC(=O)N1CCN(C[C@H]2CC[C@@H](Cc3ccc4c(c3)OCO4)O2)CC1 was 9.429%. For CCC(=O)Nc1cccc(OCC(=O)N[C@@H]2C[C@H]3CC[C@@H]2C3)c1 the result was 15.48%.

Result for CC(=O)NCCC(=O)NCc1cc(Br)ccc1OC(F)F was 2.122%. With CCOc1c(CNC2CSCCSC2)cccc1OC the screen gave 9.137%. For Cc1cc(N2Cc3cnn(CCO)c3C2)nc(-c2ccccc2O)n1 the result was 12.15%. With Cc1cnn(CC(=O)N2CCCN(c3ncccc3C#N)CC2)c1 the screen gave 14.25%. Result for CCC(CO)N(Cc1ccco1)C(=O)c1sccc1NC(C)=O (stereo unspecified) was 14.93%. For COCCOCC(=O)N1C[C@@H]2CC[C@H](Oc3ccccc3)[C@@H]2C1 the result was 25.08%.

For COCCNC(=O)C(C)n1nc(-c2ccc(C)o2)cc(N)c1=O (stereo unspecified) the result was -7.862%. With O=C(NCc1cccc(F)c1)Nc1ccn(CCN2CCOCC2)n1 the screen gave 8.934%. OCC(O)CN1CCc2onc(-c3ccc(C(F)(F)F)cc3)c2C1 (stereo unspecified) read 21.09%. Result for CCCc1cc(C(=O)Nc2nc(SC)ns2)[nH]n1 was 10.66%. Cc1nc(CC(=O)N(C)C2CCCN(CCc3ccccc3)C2)cs1 (stereo unspecified) gave 0.7117%. Result for Cc1csc(C(=O)N2CCC(S(C)(=O)=O)C2)c1 (stereo unspecified) was 11.58%.

With CC(C)C(C(=O)N1CCN(c2ccncc2)CC1)n1cncn1 (stereo unspecified) the screen gave 11.02%. O=C(c1ccccc1)N1Cc2nccn2CC(Cn2ncccc2=O)C1 (stereo unspecified) gave 10.14%. With CC(C)N(C)C(=O)C1CSCN1S(=O)(=O)c1ccccc1F (stereo unspecified) the screen gave 10.68%. CC(Cn1cccn1)NCc1csc(-c2ccc(F)cc2)n1 (stereo unspecified) read 1.795%. With c1cn(Cc2nnc(C3CCN(C4CCCCC4)CC3)n2C2CC2)cn1 the screen gave 2.338%. For CN(Cc1ccncc1)C(=O)Nc1cnn(CC2CCCO2)c1 (stereo unspecified) the result was 5.435%.

Result for O=C(CN1CC(c2nc(Cc3ccccc3)no2)C1)NCC1CCCO1 (stereo unspecified) was 12.95%. CC(C)c1cc(N2CCC3(CCN(C)C3)C2)ncn1 (stereo unspecified) gave 6.991%. With CC(NC(=O)NCCCc1n[nH]c(N)c1C#N)c1ccc(F)cc1 (stereo unspecified) the screen gave 17.75%. For O=C(NCCNS(=O)(=O)c1ccc(C(F)(F)F)cc1)c1ccoc1 the result was 8.042%. Result for O=C(C1CCOCC1)N1CCC2(CCC(C(=O)N3CCCC3)O2)CC1 (stereo unspecified) was 10.56%. Result for CC(=O)NC1CCCN(C(=O)CNc2cccc(C)c2Cl)C1 (stereo unspecified) was -0.8523%.

CN(C)C(=O)c1cccnc1N1CCOC(c2ccc(Cl)cc2)C1 (stereo unspecified) read 7.379%. Cc1cccc(NC2CCN(C(=O)Nc3cc(F)cc(F)c3)CC2)n1 read 3.286%. With CC1CN(CCC(=O)NCCc2cccnc2)Cc2ccccc2O1 (stereo unspecified) the screen gave -0.3436%. With COC(=O)C1CCCN1C(=O)c1ccc(Cl)cc1F (stereo unspecified) the screen gave -1.37%. Cc1cc(C2CCCN2C(=O)NCc2cccc(F)c2)on1 (stereo unspecified) gave 18.54%. With N#CC1COCCN1C(=O)c1ccc2cc[nH]c2c1 (stereo unspecified) the screen gave 13.33%.

Some entries from above, unchanged:

compound,Inhibition
CN1CCN(c2ncc(CNCCCc3cccc(F)c3)cn2)CC1,-6.425
O=C1CC2(CCN(Cc3ccoc3)C2)CN1c1cncnc1 (stereo unspecified),9.804
CC(Cn1cccn1)NCc1csc(-c2ccc(F)cc2)n1 (stereo unspecified),1.795